Results are given in words; binding and its absence hold for the method and conditions named. Binding calls can cover weak binding; strength is not graded here. Tags and fused reporters may be left off the sequences shown. For part of these data: Binding seen in cells or lysates may run through a third protein.
How the values were obtained:
[1] = molecular target: T1, PEL1 fused to the GAL4 DNA-binding domain (BD) (Arabidopsis thaliana) (UniProt Q9ZT87); test: two-hybrid
T1 sequence: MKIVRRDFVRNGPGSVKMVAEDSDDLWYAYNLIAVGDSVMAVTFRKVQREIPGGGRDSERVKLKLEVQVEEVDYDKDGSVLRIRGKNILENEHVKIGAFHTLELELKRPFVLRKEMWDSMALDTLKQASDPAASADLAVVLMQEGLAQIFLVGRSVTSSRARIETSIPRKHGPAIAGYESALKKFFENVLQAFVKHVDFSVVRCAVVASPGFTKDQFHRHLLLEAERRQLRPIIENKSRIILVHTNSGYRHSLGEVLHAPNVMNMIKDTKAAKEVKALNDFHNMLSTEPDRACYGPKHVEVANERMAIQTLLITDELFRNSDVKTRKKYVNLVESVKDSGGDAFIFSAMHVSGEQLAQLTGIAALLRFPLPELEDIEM

The chains behind the UniProt entries cited, without tags or fusion partners. Where a name states a change or a piece, a line headed by the entry shows the natural chain unless it says otherwise.
UniProt F4KI84: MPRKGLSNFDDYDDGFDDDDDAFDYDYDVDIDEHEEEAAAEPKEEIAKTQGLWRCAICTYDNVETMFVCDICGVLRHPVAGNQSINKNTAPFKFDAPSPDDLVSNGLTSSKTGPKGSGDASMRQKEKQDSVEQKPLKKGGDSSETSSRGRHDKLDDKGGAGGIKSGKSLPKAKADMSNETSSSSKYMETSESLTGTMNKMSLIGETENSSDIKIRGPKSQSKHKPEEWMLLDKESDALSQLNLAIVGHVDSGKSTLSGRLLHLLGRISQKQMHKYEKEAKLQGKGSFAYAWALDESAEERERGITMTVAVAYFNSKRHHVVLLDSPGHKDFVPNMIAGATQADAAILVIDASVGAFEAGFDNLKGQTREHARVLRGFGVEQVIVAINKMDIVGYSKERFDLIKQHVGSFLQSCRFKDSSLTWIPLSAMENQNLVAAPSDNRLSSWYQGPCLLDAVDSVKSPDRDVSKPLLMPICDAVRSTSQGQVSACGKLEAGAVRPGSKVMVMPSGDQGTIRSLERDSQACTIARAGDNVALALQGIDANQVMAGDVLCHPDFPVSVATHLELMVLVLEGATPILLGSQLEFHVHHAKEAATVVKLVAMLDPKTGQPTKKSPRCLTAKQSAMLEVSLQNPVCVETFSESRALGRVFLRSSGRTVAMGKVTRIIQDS

[2] = molecular target: HBS1-cYFP fusion protein (Arabidopsis thaliana); test: split reporter
[3] = molecular target: GST-HBS1 fusion protein (Arabidopsis thaliana) (UniProt F4KI84); test: pull-down

## HBS1 fused to the GAL4 activation domain (AD) (Arabidopsis thaliana)
[1]
  binding: binds

B1: PEL1-nYFP fusion protein (protein, UniProt Q9ZT87 1-378)
chain: MKIVRRDFVRNGPGSVKMVAEDSDDLWYAYNLIAVGDSVMAVTFRKVQREIPGGGRDSERVKLKLEVQVEEVDYDKDGSVLRIRGKNILENEHVKIGAFHTLELELKRPFVLRKEMWDSMALDTLKQASDPAASADLAVVLMQEGLAQIFLVGRSVTSSRARIETSIPRKHGPAIAGYESALKKFFENVLQAFVKHVDFSVVRCAVVASPGFTKDQFHRHLLLEAERRQLRPIIENKSRIILVHTNSGYRHSLGEVLHAPNVMNMIKDTKAAKEVKALNDFHNMLSTEPDRACYGPKHVEVANERMAIQTLLITDELFRNSDVKTRKKYVNLVESVKDSGGDAFIFSAMHVSGEQLAQLTGIAALLRFPLPELEDIEM
[2]
  binding: binds

B2: 6XHis-PEL1 fusion protein (protein, UniProt Q9ZT87 1-378)
chain: MKIVRRDFVRNGPGSVKMVAEDSDDLWYAYNLIAVGDSVMAVTFRKVQREIPGGGRDSERVKLKLEVQVEEVDYDKDGSVLRIRGKNILENEHVKIGAFHTLELELKRPFVLRKEMWDSMALDTLKQASDPAASADLAVVLMQEGLAQIFLVGRSVTSSRARIETSIPRKHGPAIAGYESALKKFFENVLQAFVKHVDFSVVRCAVVASPGFTKDQFHRHLLLEAERRQLRPIIENKSRIILVHTNSGYRHSLGEVLHAPNVMNMIKDTKAAKEVKALNDFHNMLSTEPDRACYGPKHVEVANERMAIQTLLITDELFRNSDVKTRKKYVNLVESVKDSGGDAFIFSAMHVSGEQLAQLTGIAALLRFPLPELEDIEM
[3]
  binding: binds
